Experimental findings from publication doi:10.1101/2024.12.12.628173 are described below.

The chains behind the UniProt entries cited, without tags or fusion partners. Where a name states a change or a piece, a line headed by the entry shows the natural chain unless it says otherwise. A line that says so, or that is headed by a name, gives the form on record, which may keep a tag or linker. Residues count along the entry.
UniProt Q9UBI1: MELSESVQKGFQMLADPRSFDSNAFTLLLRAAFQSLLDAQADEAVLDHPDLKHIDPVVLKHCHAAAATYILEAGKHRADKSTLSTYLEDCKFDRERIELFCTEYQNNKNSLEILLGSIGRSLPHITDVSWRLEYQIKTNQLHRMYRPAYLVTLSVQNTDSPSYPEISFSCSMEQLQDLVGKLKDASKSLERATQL
COMMD3 N-terminal domain (NTD) fused to mCherry and 3xFLAG: residues 1-124 of Q9UBI1
COMMD3 C-terminal domain (CTD) with N-terminal mCherry and C-terminal 3xFLAG: residues 125-195 of Q9UBI1
UniProt P84077: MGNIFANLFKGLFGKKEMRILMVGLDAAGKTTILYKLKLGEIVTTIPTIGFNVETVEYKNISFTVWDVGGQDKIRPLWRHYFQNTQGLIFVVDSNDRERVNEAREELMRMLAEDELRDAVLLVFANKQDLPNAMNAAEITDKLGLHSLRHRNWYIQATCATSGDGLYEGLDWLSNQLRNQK

These are yes or no findings as the source states them, for the method shown. Binding seen in cells or lysates may run through a third protein. These calls come from enrichment with a bait or labelling near it, and not all partners need be listed. For part of these data: No binding means not detected with the bait.

What all share (test): affinity purification with mass spectrometry; FL COMMD3, NTD and CTD (tagged with mCherry and 3xFLAG) individually expressed and isolated by immunoprecipitation from cell extracts (IP buffer: 25 mM HEPES pH 7.4, 138 mM NaCl, 10 mM Na3PO4, 2.7 mM KCl, 0.5% CHAPS, 1 mM DTT); associated proteins identified by mass spectrometry, compared with vector control
The target of assay [1] is full-length (FL) COMMD3 fused to mCherry and 3xFLAG (human) (UniProt Q9UBI1).
For assay [2], the target named is COMMD3 C-terminal domain (CTD) with N-terminal mCherry and C-terminal 3xFLAG (human) (UniProt Q9UBI1).
For assay [3], the target named is COMMD3 N-terminal domain (NTD) fused to mCherry and 3xFLAG (human) (UniProt Q9UBI1).

Take “ADP-ribosylation factor 1 (ARF1), found in the COMMD3 interactomes (from UniProt P84077 1-181)”: the values for the binding entry in assay [1], in assay [2] and in assay [3] were “binds”, “no binding” and “binds”, respectively.
